Measured values from patent US9481734B2, “Immunoglobulin cleavage fragments and disease indicators and compositions for detecting and binding such” (Janssen Biotech, Inc., priority 2007, dated 2016).

System: human IgG1
Assay: Proteinase digestion of purified IgG1, Agilent biosizing
Assay type: biochemical
Conditions: human IgG1 heavy chain, EU numbering; 1% (w/w) enzyme, pH 7.5, 37° C.
Procedure: A purified monoclonal antibody comprising a human IgG heavy chain was contacted with the proteases described and sampling was conducted over various durations of contact. Fragmentation in the samples was evaluated using the Agilent microfluidics “lab-on-a-chip” technology for in vitro biosizing (Goetz H et al. Biochemical and Biophysical Methods 60; 281-293, 2004).
Proteinase digestions of purified IgGs were carried out at pH 7.5 in phosphate-buffered saline (PBS) or, for the metalloproteinases, in Tris-buffered saline buffer at 37° C. Calcium chloride was included in the metalloproteinase reactions at 1 mM for MMP-12 and 10 mM for MMP-3; otherwise no additives were used. Antibody concentrations were typically 1 or 2 mg/mL and reactions were initiated by addition of enzyme to a 1% (w/w) ratio to IgG. […]
The major proteolytic cleavage positions in the IgG1 hinge were identified for enzyme-generated fragments by N-terminal sequencing of the purified Fc fragment (MMP-3 and MMP-12) and/or high resolution mass spectrometric analyses of the purified Fab (neutrophil elastase, plasmin) and F(ab′)2 (cathepsin G, glutamyl endopeptidase and IdeS) fragments. Fragmentation was evaluated using the Agilent microfluidics “lab-on-a-chip” technology.

Molecule | Cleaved Site
Macrophage metalloelastase (MMP-12): human metalloendopeptidase (protein, UniProt P39900 106-470, looked up) Macrophage metalloelastase: GPVWRKHYITYRINNYTPDMNREDVDYAIRKAFQVWSNVTPLKFSKINTGMADILVVFARGAHGDFHAFDGKGGILAHAFGPGSGIGGDAHFDEDEFWTTHSGGTNLFLTAVHEIGHSLGLGHSSDPKAVMFPTYKYVDINTFRLSADDIRGIQSLYGDPKENQRLPNPDNSEPALCDPNLSFDAVTTVGNKIFFFKDRFFWLKVSERPKTSVNLISSLWPTLPSGIEAAYEIEARNQVFLFKDDKYWLISNLRPEPNYPKSIHSFGFPNFVKKIDAAVFNPRFYRTYFFVDNQYWRYDERRQMMDPGYPKLITKNFQGIGPKIDAVFYSKNKYYYFFQGSNQFEYDFLLQRITKTLKSNSWFGC | Pro^232-
Plasmin: plasminogen co-incubated with plasminogen activators (protein, UniProt P00747 20-580; P00747 581-810, looked up, plasmin) Plasmin heavy chain A: EPLDDYVNTQGASLFSVTKKQLGAGSIEECAAKCEEDEEFTCRAFQYHSKEQQCVIMAENRKSSIIIRMRDVVLFEKKVYLSECKTGNGKNYRGTMSKTKNGITCQKWSSTSPHRPRFSPATHPSEGLEENYCRNPDNDPQGPWCYTTDPEKRYDYCDILECEEECMHCSGENYDGKISKTMSGLECQAWDSQSPHAHGYIPSKFPNKNLKKNYCRNPDRELRPWCFTTDPNKRWELCDIPRCTTPPPSSGPTYQCLKGTGENYRGNVAVTVSGHTCQHWSAQTPHTHNRTPENFPCKNLDENYCRNPDGKRAPWCHTTNSQVRWEYCKIPSCDSSPVSTEQLAPTAPPELTPVVQDCYHGDGQSYRGTSSTTTTGKKCQSWSSMTPHRHQKTPENYPNAGLTMNYCRNPDADKGPWCFTTDPSVRWEYCNLKKCSGTEASVVAPPPVVLLPDVETPSEEDCMFGNGKGYRGKRATTVTGTPCQDWAAQEPHRHSIFTPETNPRAGLEKNYCRNPDGDVGGPWCYTTNPRKLYDYCDVPQCAAPSFDCGKPQVEPKKCPGR Plasmin light chain B: VVGGCVAHPHSWPWQVSLRTRFGMHFCGGTLISPEWVLTAAHCLEKSPRPSSYKVILGAHQEVNLEPHVQEIEVSRLFLEPTRKDIALLKLSSPAVITDKVIPACLPSPNYVVADRTECFITGWGETQGTFGAGLLKEAQLPVIENKVCNRYEFLNGRVQSTELCAGHLAGGTDSCQGDSGGPLVCFEKDKYILQGVTSWGLGCARPNKPGVYVRVSRFVTWIEGVMRNN | Lys^223-
